Data on two compounds can be found in patent US20060140858A1, “Drug pre-targeting by means of bi-specific antibodies and hapten constructs comprising a carrier peptide and the active agent(s)” (Immunomedics, Inc., priority 2002, published 2006).

For one data set, the system named is GW-39. The settings on record: for Radiation absorbed dose (normalized): normalized to 1500 cGy to the kidneys.
A further data set has as its system GW 39 tumor xenografts. Nature of the data set: Pretargeting: 125-I-hMN-14 × 734 bsAb, 24 h later 99m-Tc-IMP-192, biodistribution. It is filed as in vivo, Nude mice.

Where two headings read alike, the source gives them in different places. Where a SMILES comes first, the peptide text is derived from it. Side-chain parts run from the residue outwards. The star is where a group is joined. DTPA = O=C(O)CN(CCN(CC(=O)O)CC(=O)O)CCN(CC(=O)O)CC(=O)*; X1 = NC(=S)NN=CC(=O)*

On to “^90Y-IMP-241: IMP 241 divalent HSG-DOTA peptide radiolabeled with ^90Y (FKYK; D-residues)”, for which the Radiation absorbed dose is 416 cGy/mCi in the data set with GW-39 (Blood); 1713 cGy/mCi in the data set with GW-39 (Kidneys); 551 cGy/mCi in the data set with GW-39 (Liver); 277 cGy/mCi in the data set with GW-39 (Lungs); 14,366 cGy/mCi in the data set with GW-39 (Tumor). Moreover, the “Radiation absorbed dose (normalized)” value is recorded as 364 cGy in the data set on GW-39 (Blood); 1500 cGy in the data set with GW-39 (Kidneys); 482 cGy in the data set with GW-39 (Liver); 242 cGy in the data set with GW-39 (Lungs); 12,578 cGy with GW-39 (Tumor).
For the compound `CC(=O)N[C@@H](CCCCNC(=O)CN(CCN(CCN(CC(=O)O)CC(=O)O)CC(=O)O)CC(=O)O)C(=O)N[C@@H](Cc1ccc(O)cc1)C(=O)N[C@@H](CCCCNC(=O)CN(CCN(CCN(CC(=O)O)CC(=O)O)CC(=O)O)CC(=O)O)C(=O)N[C@@H](CCCCNC(=O)[C@H](CS)NC(=O)C=NNC(N)=S)C(N)=O` [IMP 192, Ac-Lys(DTPA)-Tyr-Lys(DTPA)-Lys(Tscg-Cys)-NH2] (Ac-K(DTPA)YK(DTPA)K([Cys-X1])-NH2), the “% saturation on hMN-14 × 734 (available DTPA binding sites on tumor bound bsAb filled)” value in the data set on GW 39 tumor xenografts (30 min) is reported as 25.4%; in the data set with GW 39 tumor xenografts (1 h), 25.8%; in the data set on GW 39 tumor xenografts (3 h), 25%; in the data set with GW 39 tumor xenografts (24 h), 28%.
